# Measured values: patent publication US20260217822A1
# Chains of the proteins cited; added tags and fusions are not shown. Residues count along the entry.
# UniProt P15391, residues 20-291: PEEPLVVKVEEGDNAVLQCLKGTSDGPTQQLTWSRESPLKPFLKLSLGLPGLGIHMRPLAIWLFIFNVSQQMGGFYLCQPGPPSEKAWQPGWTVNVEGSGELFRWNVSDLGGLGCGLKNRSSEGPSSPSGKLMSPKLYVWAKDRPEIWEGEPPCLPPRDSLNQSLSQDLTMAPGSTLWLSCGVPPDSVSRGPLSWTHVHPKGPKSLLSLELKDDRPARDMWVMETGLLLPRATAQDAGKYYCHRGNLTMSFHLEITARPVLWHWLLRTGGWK
# No constants are given. Whether binding was seen depends on the method and setting. Some results given as binding are weak or reduced against the parent protein; the word gives no strength.
# B1: CD19 Binder 2 (scFv, V domains shown)
# VH: EVHLVESGGGLVQPGGSLRLSCAASGFTFSDYYMSWIRQAPGKGLEWVSYISSSGSTTYYADSVKGRFTISRDNAKNSLYLQMNSLRAEDTAVYYCARVEGWSLLDYWGQGTLVTVSS
# VL: QSVLTQPPSVSAAPGQKVTMSCSGSSSNIGNNYVSWYQQLPGTAPKLLIYDNNKRPSGIPDRFSGSKSGTSATLGITGLQTGDEADYYCGTWDSSLGAVVFGGGTKVTVL
# B2: CD19 Binder 1 (scFv, V domains shown)
# VH: EVQLVESGGGLIQPGGSLRLSCAASGFTVSSNYMSWVRQAPGKGLEWVSVIYSGGSTYYADSVKGRFTISRDNSKNTLYLQMNSLRAEDTAVYYCARDGGLDTLYGMDVWGQGTTVTVSS
# VL: QSVVTQPPSVSGAPGQRVTISCTGSSSNIGAGYDVHWYQQLPGTAPKLLIYGNSNRPSGVPDRFSGSKSGTSASLAITGLQAEDEADYYCQSYDSSLSGSYVFGTGTKVTVL
# B3: CD19 Binder 3 (scFv, V domains shown)
# VH: EVQLVQSGAEVKKPGESLKISCKGSGYSFTSYWIGWVRQMPGKGLEWMGIIYPGDSDTRYSPSFQGQVTISADKSISTAYLQWSSLKASDTAMYYCARLPFVGATTGGFDYWGQGTLVTVSS
# VL: QSVVTQPASVSGSPGQSITISCTGTSSDVGGYNYVSWYQQHPGKAPKLVIYEVSNRPSGVSNRFSGSKSGNTASLTISGLQAEDEADYYCSSYTSSSTLVFGGGTKLTVL
# Molecular target: recombinant CD19 (UniProt P15391)
# Test: ELISA on recombinant CD19
row,binding,Binder
1,binds,B1
2,binds,B2
3,binds,B3

# Molecular target: recombinant CD19 (UniProt P15391)
# Test: ELISA on recombinant CD19, OD at 405 nm against antibody concentration
row,binding,Binder
1,binds,B1
2,binds,B2
3,binds,B3
